Here are results for 23 molecules from article doi:10.1101/2020.03.02.973859.

Sequences of proteins named here, by UniProt entry; tags and fusion partners are left off. Residues count along the entry.
UniProt Q8C8R3: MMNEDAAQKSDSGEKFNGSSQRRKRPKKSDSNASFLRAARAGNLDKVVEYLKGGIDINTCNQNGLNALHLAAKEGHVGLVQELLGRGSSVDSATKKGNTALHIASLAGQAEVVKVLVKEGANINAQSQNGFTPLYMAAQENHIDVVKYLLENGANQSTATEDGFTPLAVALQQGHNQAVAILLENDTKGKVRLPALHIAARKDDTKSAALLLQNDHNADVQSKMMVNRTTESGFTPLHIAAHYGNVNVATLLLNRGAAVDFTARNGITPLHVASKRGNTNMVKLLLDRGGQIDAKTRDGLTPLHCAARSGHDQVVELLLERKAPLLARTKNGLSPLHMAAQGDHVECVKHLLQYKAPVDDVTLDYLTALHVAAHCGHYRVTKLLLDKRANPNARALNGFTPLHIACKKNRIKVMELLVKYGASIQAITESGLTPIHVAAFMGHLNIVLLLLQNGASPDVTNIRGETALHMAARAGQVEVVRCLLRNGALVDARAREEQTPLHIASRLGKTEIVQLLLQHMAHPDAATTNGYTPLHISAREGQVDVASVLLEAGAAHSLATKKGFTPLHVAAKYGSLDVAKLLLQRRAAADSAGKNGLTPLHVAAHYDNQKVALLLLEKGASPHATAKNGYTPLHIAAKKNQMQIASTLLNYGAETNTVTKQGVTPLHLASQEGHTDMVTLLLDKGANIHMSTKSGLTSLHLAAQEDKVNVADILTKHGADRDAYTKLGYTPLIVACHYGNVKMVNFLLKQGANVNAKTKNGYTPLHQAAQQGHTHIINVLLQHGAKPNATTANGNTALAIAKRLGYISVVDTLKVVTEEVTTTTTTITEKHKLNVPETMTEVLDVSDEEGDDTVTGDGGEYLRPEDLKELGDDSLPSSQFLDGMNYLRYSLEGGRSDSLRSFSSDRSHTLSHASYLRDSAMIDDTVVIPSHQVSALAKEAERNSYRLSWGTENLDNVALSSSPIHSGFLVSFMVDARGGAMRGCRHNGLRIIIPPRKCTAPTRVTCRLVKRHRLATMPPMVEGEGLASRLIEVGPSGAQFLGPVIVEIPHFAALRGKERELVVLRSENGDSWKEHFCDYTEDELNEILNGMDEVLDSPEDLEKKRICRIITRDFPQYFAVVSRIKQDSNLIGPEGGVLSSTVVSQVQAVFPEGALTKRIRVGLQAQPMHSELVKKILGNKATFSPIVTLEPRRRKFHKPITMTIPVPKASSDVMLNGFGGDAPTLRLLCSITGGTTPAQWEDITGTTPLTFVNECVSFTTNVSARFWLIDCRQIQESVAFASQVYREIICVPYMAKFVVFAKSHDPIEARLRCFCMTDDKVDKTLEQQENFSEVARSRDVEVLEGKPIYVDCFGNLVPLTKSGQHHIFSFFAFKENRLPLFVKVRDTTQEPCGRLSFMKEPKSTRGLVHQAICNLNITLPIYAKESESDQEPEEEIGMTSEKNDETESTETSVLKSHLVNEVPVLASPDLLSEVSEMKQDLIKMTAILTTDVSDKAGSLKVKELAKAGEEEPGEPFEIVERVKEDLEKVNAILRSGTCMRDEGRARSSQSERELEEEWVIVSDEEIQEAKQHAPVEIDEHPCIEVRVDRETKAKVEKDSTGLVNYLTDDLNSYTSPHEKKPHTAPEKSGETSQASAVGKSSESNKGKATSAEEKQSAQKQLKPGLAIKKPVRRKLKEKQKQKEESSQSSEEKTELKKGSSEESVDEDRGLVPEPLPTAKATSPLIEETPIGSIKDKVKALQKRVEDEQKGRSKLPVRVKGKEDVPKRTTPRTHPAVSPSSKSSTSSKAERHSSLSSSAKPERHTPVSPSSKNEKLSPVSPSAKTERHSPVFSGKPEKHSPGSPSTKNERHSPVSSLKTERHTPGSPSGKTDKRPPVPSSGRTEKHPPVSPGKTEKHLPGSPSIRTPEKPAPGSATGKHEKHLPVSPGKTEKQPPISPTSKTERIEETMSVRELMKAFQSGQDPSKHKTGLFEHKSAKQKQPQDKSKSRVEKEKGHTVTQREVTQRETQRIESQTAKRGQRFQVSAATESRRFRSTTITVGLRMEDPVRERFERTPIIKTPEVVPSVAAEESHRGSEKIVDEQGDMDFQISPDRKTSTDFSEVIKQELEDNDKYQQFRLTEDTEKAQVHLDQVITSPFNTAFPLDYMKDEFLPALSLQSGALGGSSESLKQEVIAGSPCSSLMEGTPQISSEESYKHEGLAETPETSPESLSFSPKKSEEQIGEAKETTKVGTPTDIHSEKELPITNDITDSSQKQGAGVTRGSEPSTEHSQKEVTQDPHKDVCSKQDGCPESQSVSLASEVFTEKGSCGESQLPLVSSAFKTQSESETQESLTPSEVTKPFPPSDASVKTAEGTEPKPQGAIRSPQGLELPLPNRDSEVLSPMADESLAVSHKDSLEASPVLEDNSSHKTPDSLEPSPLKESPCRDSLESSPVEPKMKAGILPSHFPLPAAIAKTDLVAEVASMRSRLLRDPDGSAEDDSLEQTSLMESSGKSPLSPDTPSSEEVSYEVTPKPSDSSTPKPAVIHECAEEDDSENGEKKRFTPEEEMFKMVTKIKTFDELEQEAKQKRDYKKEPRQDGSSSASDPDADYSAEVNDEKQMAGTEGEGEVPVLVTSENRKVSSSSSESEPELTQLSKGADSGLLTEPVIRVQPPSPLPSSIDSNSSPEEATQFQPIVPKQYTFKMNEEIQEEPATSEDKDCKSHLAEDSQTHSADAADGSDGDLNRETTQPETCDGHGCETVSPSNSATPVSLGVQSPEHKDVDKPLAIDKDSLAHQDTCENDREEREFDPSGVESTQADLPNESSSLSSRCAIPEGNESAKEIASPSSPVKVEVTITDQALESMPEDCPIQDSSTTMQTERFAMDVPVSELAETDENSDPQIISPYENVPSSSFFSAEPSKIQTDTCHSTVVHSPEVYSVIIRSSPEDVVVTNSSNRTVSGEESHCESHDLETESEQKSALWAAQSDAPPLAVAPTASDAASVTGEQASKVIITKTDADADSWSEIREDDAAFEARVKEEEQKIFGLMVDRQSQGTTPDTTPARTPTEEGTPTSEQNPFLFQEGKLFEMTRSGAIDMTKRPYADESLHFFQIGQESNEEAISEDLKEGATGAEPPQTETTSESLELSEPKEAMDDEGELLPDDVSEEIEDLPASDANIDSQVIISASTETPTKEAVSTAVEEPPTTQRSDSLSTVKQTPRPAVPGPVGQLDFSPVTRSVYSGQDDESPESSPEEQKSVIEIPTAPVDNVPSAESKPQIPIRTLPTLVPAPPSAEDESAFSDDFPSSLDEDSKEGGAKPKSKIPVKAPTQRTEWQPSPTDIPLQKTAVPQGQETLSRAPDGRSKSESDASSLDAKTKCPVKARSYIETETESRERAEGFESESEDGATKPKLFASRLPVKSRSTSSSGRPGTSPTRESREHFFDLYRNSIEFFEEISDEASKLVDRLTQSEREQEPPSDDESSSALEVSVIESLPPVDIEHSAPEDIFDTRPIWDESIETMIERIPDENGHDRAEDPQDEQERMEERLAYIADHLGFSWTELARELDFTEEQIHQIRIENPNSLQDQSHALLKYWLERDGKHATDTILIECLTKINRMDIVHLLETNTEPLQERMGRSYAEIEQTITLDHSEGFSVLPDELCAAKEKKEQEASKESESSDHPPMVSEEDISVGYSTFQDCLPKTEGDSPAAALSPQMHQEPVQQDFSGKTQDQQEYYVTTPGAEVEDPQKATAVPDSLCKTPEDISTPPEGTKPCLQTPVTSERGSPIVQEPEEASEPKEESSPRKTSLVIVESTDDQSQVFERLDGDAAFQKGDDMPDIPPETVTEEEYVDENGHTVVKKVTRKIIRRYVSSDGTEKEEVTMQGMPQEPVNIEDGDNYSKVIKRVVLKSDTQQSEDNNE
UniProt Q5SQX6: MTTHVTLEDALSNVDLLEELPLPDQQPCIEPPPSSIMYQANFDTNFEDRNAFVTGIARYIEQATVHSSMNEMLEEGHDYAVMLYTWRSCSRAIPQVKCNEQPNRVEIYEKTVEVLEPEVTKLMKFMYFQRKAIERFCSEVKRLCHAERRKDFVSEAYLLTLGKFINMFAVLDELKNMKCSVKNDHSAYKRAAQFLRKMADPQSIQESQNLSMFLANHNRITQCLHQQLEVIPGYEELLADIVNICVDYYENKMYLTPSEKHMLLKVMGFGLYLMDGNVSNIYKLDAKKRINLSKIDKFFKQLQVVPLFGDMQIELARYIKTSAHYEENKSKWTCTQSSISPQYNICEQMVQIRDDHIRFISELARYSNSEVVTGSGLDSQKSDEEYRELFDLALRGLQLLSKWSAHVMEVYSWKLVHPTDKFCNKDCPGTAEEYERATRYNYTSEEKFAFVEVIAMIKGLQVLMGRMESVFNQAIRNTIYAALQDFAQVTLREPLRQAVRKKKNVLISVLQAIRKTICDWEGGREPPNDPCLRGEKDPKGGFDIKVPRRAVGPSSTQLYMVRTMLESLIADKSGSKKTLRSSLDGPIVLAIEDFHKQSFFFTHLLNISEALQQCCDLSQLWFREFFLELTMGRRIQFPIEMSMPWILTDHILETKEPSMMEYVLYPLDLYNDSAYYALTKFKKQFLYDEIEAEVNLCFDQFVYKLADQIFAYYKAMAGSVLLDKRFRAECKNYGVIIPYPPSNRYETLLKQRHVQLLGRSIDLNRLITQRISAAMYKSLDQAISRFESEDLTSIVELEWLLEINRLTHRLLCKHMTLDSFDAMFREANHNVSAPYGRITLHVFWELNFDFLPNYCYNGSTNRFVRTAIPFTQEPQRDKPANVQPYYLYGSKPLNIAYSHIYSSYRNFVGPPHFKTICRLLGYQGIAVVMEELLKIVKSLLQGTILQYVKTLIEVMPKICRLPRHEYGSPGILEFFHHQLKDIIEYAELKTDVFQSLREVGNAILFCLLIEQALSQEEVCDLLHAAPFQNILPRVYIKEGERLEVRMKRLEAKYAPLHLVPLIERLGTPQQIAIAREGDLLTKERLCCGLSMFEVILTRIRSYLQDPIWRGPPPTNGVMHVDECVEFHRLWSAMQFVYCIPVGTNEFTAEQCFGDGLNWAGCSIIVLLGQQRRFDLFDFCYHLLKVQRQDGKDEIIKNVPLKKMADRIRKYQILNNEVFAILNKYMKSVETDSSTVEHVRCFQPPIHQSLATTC
UniProt Q14BI2, residues 19-872: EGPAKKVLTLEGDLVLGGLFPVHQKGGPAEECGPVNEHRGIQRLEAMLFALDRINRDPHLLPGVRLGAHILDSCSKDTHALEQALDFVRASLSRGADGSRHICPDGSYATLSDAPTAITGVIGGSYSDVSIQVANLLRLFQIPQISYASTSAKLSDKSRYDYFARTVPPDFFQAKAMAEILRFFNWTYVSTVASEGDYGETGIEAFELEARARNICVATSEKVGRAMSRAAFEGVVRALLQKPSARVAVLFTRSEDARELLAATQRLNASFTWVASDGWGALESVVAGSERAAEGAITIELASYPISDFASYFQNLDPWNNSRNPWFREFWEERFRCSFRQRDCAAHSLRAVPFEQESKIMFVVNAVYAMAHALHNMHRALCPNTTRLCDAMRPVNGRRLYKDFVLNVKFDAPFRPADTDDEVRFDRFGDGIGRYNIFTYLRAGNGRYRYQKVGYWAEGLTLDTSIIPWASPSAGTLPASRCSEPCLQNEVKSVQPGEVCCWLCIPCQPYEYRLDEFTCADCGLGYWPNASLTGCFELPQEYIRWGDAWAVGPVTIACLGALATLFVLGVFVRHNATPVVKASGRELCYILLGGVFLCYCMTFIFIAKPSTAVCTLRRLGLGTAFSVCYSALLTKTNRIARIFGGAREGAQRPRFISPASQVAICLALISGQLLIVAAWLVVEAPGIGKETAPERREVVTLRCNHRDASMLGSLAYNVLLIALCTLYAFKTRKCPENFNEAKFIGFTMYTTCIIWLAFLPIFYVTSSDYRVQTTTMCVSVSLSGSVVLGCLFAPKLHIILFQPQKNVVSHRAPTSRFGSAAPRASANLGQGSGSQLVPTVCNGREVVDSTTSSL
UniProt Q6P9R2: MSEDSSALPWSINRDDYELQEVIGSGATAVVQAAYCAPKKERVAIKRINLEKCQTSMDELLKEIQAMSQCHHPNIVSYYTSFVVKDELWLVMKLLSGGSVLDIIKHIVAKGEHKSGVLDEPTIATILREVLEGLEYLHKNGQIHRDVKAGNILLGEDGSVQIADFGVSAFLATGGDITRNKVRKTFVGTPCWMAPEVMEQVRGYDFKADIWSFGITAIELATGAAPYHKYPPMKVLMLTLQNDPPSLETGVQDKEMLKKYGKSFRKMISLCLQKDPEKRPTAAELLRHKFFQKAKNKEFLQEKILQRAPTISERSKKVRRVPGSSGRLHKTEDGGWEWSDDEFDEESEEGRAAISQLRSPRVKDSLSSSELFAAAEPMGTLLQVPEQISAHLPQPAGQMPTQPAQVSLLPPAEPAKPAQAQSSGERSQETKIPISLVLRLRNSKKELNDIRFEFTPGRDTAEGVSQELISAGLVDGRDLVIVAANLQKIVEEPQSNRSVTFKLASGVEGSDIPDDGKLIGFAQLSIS

In the test the target is T1, K+/Cl- co-transporter KCC2 (mouse (endogenous in mouse forebrain)) (UniProt Q91V14).
T1 sequence: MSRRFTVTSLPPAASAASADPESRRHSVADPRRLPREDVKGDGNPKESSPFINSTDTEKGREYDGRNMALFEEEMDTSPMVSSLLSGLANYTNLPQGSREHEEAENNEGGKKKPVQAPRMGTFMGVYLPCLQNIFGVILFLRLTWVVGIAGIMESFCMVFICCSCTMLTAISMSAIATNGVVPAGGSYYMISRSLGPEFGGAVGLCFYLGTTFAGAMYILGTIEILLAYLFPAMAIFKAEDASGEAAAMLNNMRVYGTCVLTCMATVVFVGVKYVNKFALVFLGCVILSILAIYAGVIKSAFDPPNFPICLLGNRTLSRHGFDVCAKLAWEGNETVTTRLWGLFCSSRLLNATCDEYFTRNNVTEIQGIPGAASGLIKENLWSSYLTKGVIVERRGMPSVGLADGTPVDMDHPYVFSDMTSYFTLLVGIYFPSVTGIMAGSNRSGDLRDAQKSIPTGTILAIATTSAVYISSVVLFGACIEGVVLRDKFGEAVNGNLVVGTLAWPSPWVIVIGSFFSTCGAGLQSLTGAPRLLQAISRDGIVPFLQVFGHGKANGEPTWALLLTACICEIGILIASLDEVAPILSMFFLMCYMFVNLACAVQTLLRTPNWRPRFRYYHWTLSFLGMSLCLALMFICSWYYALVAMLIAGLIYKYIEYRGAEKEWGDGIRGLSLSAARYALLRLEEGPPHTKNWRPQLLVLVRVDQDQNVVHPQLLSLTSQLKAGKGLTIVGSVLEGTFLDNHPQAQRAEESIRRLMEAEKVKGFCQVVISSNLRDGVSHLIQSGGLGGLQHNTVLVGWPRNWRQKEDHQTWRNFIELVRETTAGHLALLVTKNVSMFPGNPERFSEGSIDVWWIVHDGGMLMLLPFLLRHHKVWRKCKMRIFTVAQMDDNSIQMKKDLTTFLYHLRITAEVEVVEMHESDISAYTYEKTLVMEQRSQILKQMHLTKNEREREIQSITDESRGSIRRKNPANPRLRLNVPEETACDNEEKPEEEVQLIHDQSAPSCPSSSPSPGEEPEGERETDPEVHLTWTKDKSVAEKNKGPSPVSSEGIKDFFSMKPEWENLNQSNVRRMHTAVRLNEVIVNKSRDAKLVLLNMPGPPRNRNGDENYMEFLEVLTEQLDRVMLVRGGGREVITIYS
In words: affinity purification with mass spectrometry.

Results are given in words; binding and its absence hold for the method and conditions named. In cells and extracts the contact can be indirect. Here binding means that the protein was enriched with, or labelled near, the bait; the list need not be complete. A no says only that the protein was not detected with the bait.

In the case of AAK1 (from UniProt Q3UHJ0 1-959), the binding result is “binds”.
The same measure for ANK2 (from UniProt Q8C8R3 1-3898): “binds”.
The same measure for ATP2A2 (from UniProt O55143 1-1044): “binds”; for CACNA1E (from UniProt Q61290 1-2272): “binds”.
The same measure for CYFIP1 (from UniProt Q7TMB8 1-1253): “binds”; for CYFIP2 (from UniProt Q5SQX6 1-1253): “binds”.
Turning to DLG1 (from UniProt Q811D0 1-905), the binding result is recorded as “binds”.
Turning to EPB41L1 (from UniProt Q9Z2H5 1-879), the binding result is on record as “no binding”.
Next, “GRM2 (from UniProt Q14BI2 19-872) (receptor)”: “binds”.
Next, “GRM3 (from UniProt Q9QYS2 23-879) (receptor)”: “binds”.
The same measure for ITPR1 (from UniProt P11881 1-2749): “binds”; for NLGN3 (from UniProt Q8BYM5 35-825): “binds”.
“OSR (from UniProt Q6P9R2 1-527) (enzyme)”: the binding result is given as “no binding”.
As for “PKC (mouse (endogenous in mouse forebrain)) (enzyme)”, the binding result was “no binding”.
The same measure for SHANK3 (from UniProt Q4ACU6 1-1730): “binds”; for SNAP25 (from UniProt P60879 1-206): “binds”; for SPTAN1 (from UniProt P16546 1-2472): “binds”.
Next, SPTBN1 (from UniProt Q62261 1-2363): “binds”.
Next, “WNK (mouse (endogenous in mouse forebrain)) (enzyme)”: “no binding”.

B1: gephyrin (protein, UniProt Q8BUV3 1-769)
chain: MATEGMILTNHDHQIRVGVLTVSDSCFRNLAEDRSGINLKDLVQDPSLLGGTISAYKIVPDEIEEIKETLIDWCDEKELNLILTTGGTGFAPRDVTPEATKEVIEREAPGMALAMLMGSLNVTPLGMLSRPVCGIRGKTLIINLPGSKKGSQECFQFILPALPHAIDLLRDAIVKVKEVHDELEDLPSPPPPLSPPPTTSPHKQTEDKGVQCEEEEEEKKDSGVASTEDSSSSHITAAALAAKIPDSIISRGVQVLPRDTASLSTTPSESPRAQATSRLSTASCPTPKQIRRPDESKGVASRVGSLKARLPSCSSTYSVSEVQSRCSSKENILRASHSAVDITKVARRHRMSPFPLTSMDKAFITVLEMTPVLGTEIINYRDGMGRVLAQDVYAKDNLPPFPASVKDGYAVRAADGPGDRFIIGESQAGEQPTQTVMPGQVMRVTTGAPIPCGADAVVQVEDTELIRESDDGTEELEVRILVQARPGQDIRPIGHDIKRGECVLAKGTHMGPSEIGLLATVGVTEVEVNKFPVVAVMSTGNELLNPEDDLLPGKIRDSNRSTLLATIQEHGYPTINLGIVGDNPDDLLNALNEGISRADVIITSGGVSMGEKDYLKQVLDIDLHAQIHFGRVFMKPGLPTTFATLDIDGVRKIIFALPGNPVSAVVTCNLFVVPALRKMQGILDPRPTIIKARLSCDVKLDPRPEYHRCILTWHHQEPLPWAQSTGNQMSSRLMSMRSANGLLMLPPKTEQYVELHKGEVVDVMVIGRL
Turning to B1, the binding result was “binds”.

B2: KCC1 (protein, UniProt Q9JIS8 1-1085)
chain: MPHFTVVPVDGPRRGDYDNLEGLSWVDYGERAEREDSDGQGNHRENSPFLCPLDASRGNDYYDRNLALFEEELDIRPKVSSLLGKLVSYTNLTQGAKEHEEAESGEGGRRRAAKAPSMGTLMGVYLPCLQNIFGVILFLRLTWMVGTAGVLQALLIVLICCCCTLLTAISMSAIATNGVVPAGGSYFMISRSLGPEFGGAVGLCFYLGTTFAAAMYILGAIEILLTYIAPPAAIFYPSGTHDMSSATLNNMRVYGTIFLTLMTLVVFVGVKYVNKFASLFLACVIISILSIYAGGIKSIFDPPVFPVCMLGNRTLSRDQFDICAKTVVVDNETVATRLWTFFCHSPNLTADSCDPYFLLNNVTEIPGIPGAAAGVLQENLWSAYLEKGEVVEKHGLPSTDTLGLKESLSLYVVADIATSFTVLVGIFFPSVTGIMAGSNRSGDLRDAQKSIPVGTILAIVTTSLVYFSSVILFGACIEGVVLRDKYGDGVSRNLVVGTLAWPSPWVIVVGSFFSTCGAGLQSLTGAPRLLQAIAKDNIIPFLRVFGHGKANGEPTWALLLTALIAELGILIASLDMVAPILSMFFLMCYLFVNLACAVQTLLRTPNWRPRFKYYHWTLSFLGMSLCLALMFVSSWYYALVAMLIAGMIYKYIEYQGAEKEWGDGIRGLSLSAARYALLRLEEGPPHTKNWRPQLLVLLKLDEDLHVKYPRLLTFASQLKAGKGLTIVGSVIQGSFLESYGEAQAAEQTIKNMMDIEKVKGFCQVVVASKVREGLAHLIQSCGLGGMRHNSVVLGWPYGWRQSEDPRAWKTFIDTVRCTTAAHLALLVPKNIAFYPSNHERYLDGHIDVWWIVHDGGMLMLLPFLLRQHKVWKKCRMRIFTVAQMDDNSIQMKKDLAIFLYHLRLEAEVEVVEMHNSDISAYTYERTLMMEQRSQMLRQMRLTKTERDREAQLVKDRHSALRLESLYSDEEEESVAGADKIQMTWTRDKYMAEPWDPSHAPDNFRELVHIKPDQSNVRRMHTAVKLNEVIVTRSHDARLVLLNMPGPPKNSEGDENYMEFLEVLTEGLERVLLVRGGGREVITIYS
In the case of B2, the binding result was “binds”.

B3: GABBR2 (receptor, UniProt Q80T41 41-940)
chain: WARGAPRPPPSSPPLSIMGLMPLTKEVAKGSIGRGVLPAVELAIEQIRNESLLRPYFLDLRLYDTECDNAKGLKAFYDAIKYGPNHLMVFGGVCPSVTSIIAESLQGWNLVQLSFAATTPVLADKKKYPYFFRTVPSDNAVNPAILKLLKHFRWRRVGTLTQDVQRFSEVRNDLTGVLYGEDIEISDTESFSNDPCTSVKKLKGNDVRIILGQFDQNMAAKVFCCAFEESMFGSKYQWIIPGWYEPAWWEQVHVEANSSRCLRRSLLAAMEGYIGVDFEPLSSKQIKTISGKTPQQYEREYNSKRSGVGPSKFHGYAYDGIWVIAKTLQRAMETLHASSRHQRIQDFNYTDHTLGRIILNAMNETNFFGVTGQVVFRNGERMGTIKFTQFQDSREVKVGEYNAVADTLEIINDTIRFQGSEPPKDKTIILEQLRKISLPLYSILSALTILGMIMASAFLFFNIKNRNQKLIKMSSPYMNNLIILGGMLSYASIFLFGLDGSFVSEKTFETLCTVRTWILTVGYTTAFGAMFAKTWRVHAIFKNVKMKKKIIKDQKLLVIVGGMLLIDLCILICWQAVDPLRRTVERYSMEPDPAGRDISIRPLLEHCENTHMTIWLGIVYAYKGLLMLFGCFLAWETRNVSIPALNDSKYIGMSVYNVGIMCIIGAAVSFLTRDQPNVQFCIVALVIIFCSTITLCLVFVPKLITLRTNPDAATQNRRFQFTQNQKKEDSKTSTSVTSVNQASTSRLEGLQSENHRLRMKITELDKDLEEVTMQLQDTPEKTTYIKQNHYQELNDILSLGNFTESTDGGKAILKNHLDQNPQLQWNTTEPSRTCKDPIEDINSPEHIQRRLSLQLPILHHAYLPSIGGVDASCVSPCVSPTASPRHRHVPPSFRVMVSGL
As to B3, the binding result is on record as “binds”.

B4: NCKAP1 (protein, UniProt P28660 1-1128)
chain: MSRSVLQPSQQKLAEKLTILNDRGVGMLTRLYNIKKACGDPKAKPSYLIDKNLESAVKFIVRKFPAVETRNNNQQLAQLQKEKSEILKNLALYYFTFVDVMEFKDHVCDLLNTIDVCQVFFDITVNFDLTKNYLDLTVTYTTLMILLSRIEERKAIIGLYNYAHEMTHGASDREYPRLGQMIVDYENPLKKMMEEFVPHSKSLSDALISLQMVYPRRNLSADQWRNAQLLSLISAPSTMLNPAQSDTMPCEYLSLDAMEKWIIFGFILCHGMLNTEATALNLWKLALQSSSCLSLFRDEVFHIHKAAEDLFVNIRGYNKRINDIRECKEAAVSHAGSMHRERRKFLRSALKELATVLSDQPGLLGPKALFVFMALSFARDEIIWLLRHADNMPKKSADDFIDKHIAELIFYMEELRAHVRKYGPVMQRYYVQYLSGFDAVVLNELVQNLSVCPEDESIIMSSFVNTMTSLSVKQVEDGEVFDFRGMRLDWFRLQAYTSVSKASLSLADHRELGKMMNTIIFHTKMVDSLVEMLVETSDLSIFCFYSRAFEKMFQQCLELPSQSRYSIAFPLLCTHFMSCTHELCPEERHHIGDRSLSLCNMFLDEMAKQARNLITDICTEQCTLSDQLLPKHCAKTISQAVNKKSKKQTGKKGEPEREKPGVESMRKNRLVVTNLDKLHTALSELCFSINYVPNMAVWEHTFTPREYLTSHLEIRFTKSIVGMTMYNQATQEIAKPSELLTSVRAYMTVLQSIENYVQIDITRVFNNVLLQQTQHLDSHGEPTITSLYTNWYLETLLRQVSNGHIAYFPAMKAFVNLPTENELTFNAEEYSDISEMRSLSELLGPYGMKFLSESLMWHISSQVAELKKLVVENVDVLTQMRTSFDKPDQMAALFKRLSSVDSVLKRMTIIGVILSFRSLAQEALRDVLSYHIPFLVSSIEDFKDHIPRETDMKVAMNVYELSSAAGLPCEIDPALVVALSSQKSENISPEEEYKIACLLMVFVAVSLPTLASNVMSQYSPAIEGHCNNIHCLAKAINQIAAALFTIHKGSIEDRLKEFLALASSSLLKIGQETDKTTTRNRESVYLLLDMIVQESPFLTMDLLESCFPYVLLRNAYHAVYKQSVTSSA
Regarding B4, the binding result is “binds”.
